Binding data for 6 molecules are collected here from article PMC11879114.

Chains of the proteins cited; added tags and fusions are not shown. Lines headed by an entry give the natural chain unless they say otherwise; changes in a name come on top. Residues count along the entry.
UniProt P93002: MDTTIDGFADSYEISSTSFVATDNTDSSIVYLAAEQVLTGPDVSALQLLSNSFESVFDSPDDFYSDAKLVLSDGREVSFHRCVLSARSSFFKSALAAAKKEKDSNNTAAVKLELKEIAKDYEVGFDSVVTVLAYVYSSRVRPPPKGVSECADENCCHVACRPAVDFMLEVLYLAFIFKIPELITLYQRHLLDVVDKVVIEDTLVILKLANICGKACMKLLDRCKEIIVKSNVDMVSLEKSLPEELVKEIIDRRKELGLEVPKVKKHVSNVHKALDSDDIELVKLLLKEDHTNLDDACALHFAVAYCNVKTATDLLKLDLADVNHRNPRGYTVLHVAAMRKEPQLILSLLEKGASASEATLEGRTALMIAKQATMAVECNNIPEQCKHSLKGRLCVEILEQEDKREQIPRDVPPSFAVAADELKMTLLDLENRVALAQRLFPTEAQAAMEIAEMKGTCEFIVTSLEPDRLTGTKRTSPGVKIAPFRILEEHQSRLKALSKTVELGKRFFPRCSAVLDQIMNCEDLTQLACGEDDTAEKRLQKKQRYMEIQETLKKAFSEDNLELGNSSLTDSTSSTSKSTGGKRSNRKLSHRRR
NPR1-C-BD: residues 328-593 of P93002

The target of experiment [1] is T1, GST-ATG6 (Arabidopsis thaliana) (UniProt Q9M367).
T1 sequence: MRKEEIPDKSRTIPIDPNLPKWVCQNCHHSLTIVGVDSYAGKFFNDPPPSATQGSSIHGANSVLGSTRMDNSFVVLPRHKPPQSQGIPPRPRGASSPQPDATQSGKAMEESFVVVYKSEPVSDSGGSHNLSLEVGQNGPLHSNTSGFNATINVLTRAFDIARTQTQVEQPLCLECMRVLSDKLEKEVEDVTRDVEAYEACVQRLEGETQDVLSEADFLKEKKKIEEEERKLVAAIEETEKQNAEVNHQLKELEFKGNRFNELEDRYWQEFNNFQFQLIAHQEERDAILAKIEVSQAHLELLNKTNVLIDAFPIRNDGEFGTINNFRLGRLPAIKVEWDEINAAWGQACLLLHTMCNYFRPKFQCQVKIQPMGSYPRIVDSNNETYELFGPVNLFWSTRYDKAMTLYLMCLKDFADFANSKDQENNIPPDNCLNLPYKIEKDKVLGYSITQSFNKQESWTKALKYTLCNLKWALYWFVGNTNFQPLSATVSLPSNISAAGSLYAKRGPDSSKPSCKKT
Kind of experiment: pull-down; GST, GST-ATG6 on GST-tag Purification Resin (2 hr, 4°C, washed with PBS), then incubated with NPR1-His for 2 hr at 4°C; western blot with anti-GST and anti-His; only the target purified. Background: Immunoblotting shows a protein as a band on a membrane.

In experiment [2] the target is NPR1-nYFP (Arabidopsis thaliana) (UniProt P93002). Kind of experiment: split reporter; BiFC: cYFP and nYFP fusions co-expressed in leaves of nls-mCherry N. benthamiana for 3 days; YFP by confocal microscopy.
The target of experiment [3] is NPR1-BD (Arabidopsis thaliana) (UniProt P93002). The experiment is described as follows: two-hybrid; Gal4 system in yeast AH109; NPRs as BD bait, ATGs or SnRK2.8 as AD prey; growth on SD/-Trp-Leu-His-Ade, normal conditions (no SA).
For experiment [4] the target is unchanged. The experiment is described as follows: two-hybrid; Gal4 system in yeast AH109; NPRs-BD with ATGs-AD; growth on SD/-Trp-Leu-His-Ade with different SA concentrations.
The target in experiment [5] is T2, NPR3-BD (Arabidopsis thaliana) (UniProt Q8L746).
T2 sequence: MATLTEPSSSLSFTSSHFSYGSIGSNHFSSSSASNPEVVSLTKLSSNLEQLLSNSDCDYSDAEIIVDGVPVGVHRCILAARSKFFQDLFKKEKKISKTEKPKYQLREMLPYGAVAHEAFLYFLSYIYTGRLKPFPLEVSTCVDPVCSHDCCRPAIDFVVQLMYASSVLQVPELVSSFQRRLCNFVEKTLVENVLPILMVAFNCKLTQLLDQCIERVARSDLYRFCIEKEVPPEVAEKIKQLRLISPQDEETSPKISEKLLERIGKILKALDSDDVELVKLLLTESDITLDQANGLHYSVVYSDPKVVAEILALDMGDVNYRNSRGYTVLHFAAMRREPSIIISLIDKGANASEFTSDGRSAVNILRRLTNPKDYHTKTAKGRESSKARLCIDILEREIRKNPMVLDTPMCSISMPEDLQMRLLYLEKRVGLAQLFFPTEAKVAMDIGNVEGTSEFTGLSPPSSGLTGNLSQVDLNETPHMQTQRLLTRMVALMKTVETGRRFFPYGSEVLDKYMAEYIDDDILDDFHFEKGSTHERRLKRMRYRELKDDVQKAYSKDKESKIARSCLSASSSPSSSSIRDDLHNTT
The description is as above.

Experiment [6] addresses T3, NPR4-BD (Arabidopsis thaliana) (UniProt Q5ICL9).
T3 sequence: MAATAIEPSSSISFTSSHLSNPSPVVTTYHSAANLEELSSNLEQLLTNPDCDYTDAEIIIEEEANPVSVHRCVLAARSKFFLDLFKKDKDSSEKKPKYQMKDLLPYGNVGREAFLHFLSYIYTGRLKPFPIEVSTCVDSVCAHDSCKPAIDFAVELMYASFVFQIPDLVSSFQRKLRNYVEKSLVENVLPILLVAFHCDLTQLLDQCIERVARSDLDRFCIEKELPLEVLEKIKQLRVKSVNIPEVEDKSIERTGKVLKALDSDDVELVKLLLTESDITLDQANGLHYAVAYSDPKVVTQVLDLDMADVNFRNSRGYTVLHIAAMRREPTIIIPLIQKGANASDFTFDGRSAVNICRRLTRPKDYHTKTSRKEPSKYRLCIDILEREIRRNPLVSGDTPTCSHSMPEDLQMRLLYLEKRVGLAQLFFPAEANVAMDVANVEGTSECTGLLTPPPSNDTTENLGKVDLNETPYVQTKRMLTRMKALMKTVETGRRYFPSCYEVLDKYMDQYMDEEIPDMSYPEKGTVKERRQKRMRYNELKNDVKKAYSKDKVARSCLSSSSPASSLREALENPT
The experiment is described as above.

In experiment [7] the target is T2, NPR3-BD (Arabidopsis thaliana). The experiment is described as follows: two-hybrid; Gal4 system in yeast AH109; NPRs as BD bait, ATGs or SnRK2.8 as AD prey; growth on SD/-Trp-Leu-His-Ade, normal conditions (no SA).
The target in experiment [8] is NPR1-C-BD (Arabidopsis thaliana) (UniProt P93002). Described as above.
In experiment [9] the target is T3, NPR4-BD (Arabidopsis thaliana). The experiment is described as above.
The target of experiment [10] is NPR1-GFP (Arabidopsis thaliana) (UniProt P93002). The experiment is described as follows: co-IP; N. benthamiana leaves transiently transformed with ATG6-mCherry + NPR1-GFP; lysate with 150 mM NaCl, 0.2% NP40; IP with GFP-Trap Magnetic Agarose; blots with ATG6 and GFP antibodies.

No constants are given. Whether binding was seen depends on the method and setting. For part of these data: Binding seen in cells or lysates may run through a third protein. Some binding calls cover weakened binding; strength is not graded here. For part of these data: Tags and fused reporters may be left off the sequences shown.

For NPR1-His (from UniProt P93002 1-593), the binding entry in [1] was “binds”.

B1: SnRK2.8-cYFP (protein, UniProt Q9M9E9 1-343)
chain: MERYEIVKDIGSGNFGVAKLVRDKFSKELFAVKFIERGQKIDEHVQREIMNHRSLIHPNIIRFKEVLLTATHLALVMEYAAGGELFGRICSAGRFSEDEARFFFQQLISGVNYCHSLQICHRDLKLENTLLDGSEAPRVKICDFGYSKSGVLHSQPKTTVGTPAYIAPEVLSTKEYDGKIADVWSCGVTLYVMLVGAYPFEDPSDPKDFRKTIGRILKAQYAIPDYVRVSDECRHLLSRIFVANPEKRITIEEIKNHSWFLKNLPVEMYEGSLMMNGPSTQTVEEIVWIIEEARKPITVATGLAGAGGSGGSSNGAIGSSSMDLDDLDTDFDDIDTADLLSPL
In the case of B1, the binding entry in experiment [2] is listed as “binds”.

B2: SnRK2.8-AD (protein, UniProt Q9M9E9 1-343)
chain: MERYEIVKDIGSGNFGVAKLVRDKFSKELFAVKFIERGQKIDEHVQREIMNHRSLIHPNIIRFKEVLLTATHLALVMEYAAGGELFGRICSAGRFSEDEARFFFQQLISGVNYCHSLQICHRDLKLENTLLDGSEAPRVKICDFGYSKSGVLHSQPKTTVGTPAYIAPEVLSTKEYDGKIADVWSCGVTLYVMLVGAYPFEDPSDPKDFRKTIGRILKAQYAIPDYVRVSDECRHLLSRIFVANPEKRITIEEIKNHSWFLKNLPVEMYEGSLMMNGPSTQTVEEIVWIIEEARKPITVATGLAGAGGSGGSSNGAIGSSSMDLDDLDTDFDDIDTADLLSPL
Consider B2, for which, in experiment [3], the binding entry is reported as “binds”.

B3: ATG6-AD (protein, UniProt Q9M367 1-517)
chain: MRKEEIPDKSRTIPIDPNLPKWVCQNCHHSLTIVGVDSYAGKFFNDPPPSATQGSSIHGANSVLGSTRMDNSFVVLPRHKPPQSQGIPPRPRGASSPQPDATQSGKAMEESFVVVYKSEPVSDSGGSHNLSLEVGQNGPLHSNTSGFNATINVLTRAFDIARTQTQVEQPLCLECMRVLSDKLEKEVEDVTRDVEAYEACVQRLEGETQDVLSEADFLKEKKKIEEEERKLVAAIEETEKQNAEVNHQLKELEFKGNRFNELEDRYWQEFNNFQFQLIAHQEERDAILAKIEVSQAHLELLNKTNVLIDAFPIRNDGEFGTINNFRLGRLPAIKVEWDEINAAWGQACLLLHTMCNYFRPKFQCQVKIQPMGSYPRIVDSNNETYELFGPVNLFWSTRYDKAMTLYLMCLKDFADFANSKDQENNIPPDNCLNLPYKIEKDKVLGYSITQSFNKQESWTKALKYTLCNLKWALYWFVGNTNFQPLSATVSLPSNISAAGSLYAKRGPDSSKPSCKKT
As to B3, the binding entry in experiment [4], in experiment [5], in [6], in [3], in experiment [7] and in [8] was “binds” throughout. In addition, the binding result in experiment [9] is recorded as “binds”.

B4: ATG6-cYFP (protein, UniProt Q9M367 1-517)
chain: MRKEEIPDKSRTIPIDPNLPKWVCQNCHHSLTIVGVDSYAGKFFNDPPPSATQGSSIHGANSVLGSTRMDNSFVVLPRHKPPQSQGIPPRPRGASSPQPDATQSGKAMEESFVVVYKSEPVSDSGGSHNLSLEVGQNGPLHSNTSGFNATINVLTRAFDIARTQTQVEQPLCLECMRVLSDKLEKEVEDVTRDVEAYEACVQRLEGETQDVLSEADFLKEKKKIEEEERKLVAAIEETEKQNAEVNHQLKELEFKGNRFNELEDRYWQEFNNFQFQLIAHQEERDAILAKIEVSQAHLELLNKTNVLIDAFPIRNDGEFGTINNFRLGRLPAIKVEWDEINAAWGQACLLLHTMCNYFRPKFQCQVKIQPMGSYPRIVDSNNETYELFGPVNLFWSTRYDKAMTLYLMCLKDFADFANSKDQENNIPPDNCLNLPYKIEKDKVLGYSITQSFNKQESWTKALKYTLCNLKWALYWFVGNTNFQPLSATVSLPSNISAAGSLYAKRGPDSSKPSCKKT
Regarding B4, the binding entry in experiment [2] is on record as “binds”.

B5: ATG6-mCherry (protein, UniProt Q9M367 1-517)
chain: MRKEEIPDKSRTIPIDPNLPKWVCQNCHHSLTIVGVDSYAGKFFNDPPPSATQGSSIHGANSVLGSTRMDNSFVVLPRHKPPQSQGIPPRPRGASSPQPDATQSGKAMEESFVVVYKSEPVSDSGGSHNLSLEVGQNGPLHSNTSGFNATINVLTRAFDIARTQTQVEQPLCLECMRVLSDKLEKEVEDVTRDVEAYEACVQRLEGETQDVLSEADFLKEKKKIEEEERKLVAAIEETEKQNAEVNHQLKELEFKGNRFNELEDRYWQEFNNFQFQLIAHQEERDAILAKIEVSQAHLELLNKTNVLIDAFPIRNDGEFGTINNFRLGRLPAIKVEWDEINAAWGQACLLLHTMCNYFRPKFQCQVKIQPMGSYPRIVDSNNETYELFGPVNLFWSTRYDKAMTLYLMCLKDFADFANSKDQENNIPPDNCLNLPYKIEKDKVLGYSITQSFNKQESWTKALKYTLCNLKWALYWFVGNTNFQPLSATVSLPSNISAAGSLYAKRGPDSSKPSCKKT
B5: the binding entry in [10] is “binds”.
